From US20250388667A1
These are yes or no findings as the source states them, for the method shown. Some binding calls cover weakened binding; strength is not graded here.

Experiments:
[1] = molecular target: monkey cNectin-4 protein (ACRO, NE4-C52H4) (cynomolgus monkey); assay: ELISA, antigen coated, HRP-labeled anti-human-Kappa secondary antibody
[2] = molecular target: T1, mouse mNectin-4 protein (ACRO, NE4-M52H3) (mouse) (UniProt Q8R007); assay: as above
T1 sequence (looked up): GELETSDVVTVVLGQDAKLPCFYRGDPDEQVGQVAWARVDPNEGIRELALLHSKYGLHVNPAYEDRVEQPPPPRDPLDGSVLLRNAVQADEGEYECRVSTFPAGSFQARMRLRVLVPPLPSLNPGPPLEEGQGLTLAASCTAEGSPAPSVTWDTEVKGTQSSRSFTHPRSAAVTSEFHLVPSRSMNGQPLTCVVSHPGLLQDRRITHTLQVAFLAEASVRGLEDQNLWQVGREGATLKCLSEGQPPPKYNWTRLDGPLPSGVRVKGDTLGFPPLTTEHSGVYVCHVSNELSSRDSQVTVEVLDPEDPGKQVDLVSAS

[3] = molecular target: T1, mouse mNectin-4 protein (ACRO, NE4-M52H3) (mouse); assay: ELISA, antigen coated

Measured: binding

B1: reference antibody ASG-22 (antibody, human IgG1, kappa, V domains shown)
VH: EVQLVESGGGLVQPGGSLRLSCAASGFTFSSYNMNWVRQAPGKGLEWVSYISSSSSTIYYADSVKGRFTISRDNAKNSLSLQMNSLRDEDTAVYYCARAYYYGMDVWGQGTLVTVSS
VL: DIQMTQSPSSVSASVGDRVTITCRASQGISGWLAWYQQKPGKAPKFLIYAASTLQSGVPSRFSGSGSGTDFTLTISSLQPEDFATYYCQQANSFPPTFGGGTKVEIKR
binds: all assays above
